Measurements from the supplement of paper PMC10849652.
The other results are listed elsewhere or left out.

Protein sequences, listed by entry. Tags and fused reporters are not part of them. Lines headed by an entry give the natural chain unless they say otherwise; changes in a name come on top.
UniProt O95749: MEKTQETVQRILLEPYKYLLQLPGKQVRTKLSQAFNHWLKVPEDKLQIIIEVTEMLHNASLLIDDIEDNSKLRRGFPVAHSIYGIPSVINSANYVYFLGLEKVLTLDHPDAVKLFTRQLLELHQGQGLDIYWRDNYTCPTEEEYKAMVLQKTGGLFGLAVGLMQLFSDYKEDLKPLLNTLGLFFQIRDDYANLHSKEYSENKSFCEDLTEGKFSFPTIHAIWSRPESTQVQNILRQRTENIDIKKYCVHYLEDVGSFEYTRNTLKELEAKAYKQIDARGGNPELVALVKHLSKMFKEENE
UniProt P07902: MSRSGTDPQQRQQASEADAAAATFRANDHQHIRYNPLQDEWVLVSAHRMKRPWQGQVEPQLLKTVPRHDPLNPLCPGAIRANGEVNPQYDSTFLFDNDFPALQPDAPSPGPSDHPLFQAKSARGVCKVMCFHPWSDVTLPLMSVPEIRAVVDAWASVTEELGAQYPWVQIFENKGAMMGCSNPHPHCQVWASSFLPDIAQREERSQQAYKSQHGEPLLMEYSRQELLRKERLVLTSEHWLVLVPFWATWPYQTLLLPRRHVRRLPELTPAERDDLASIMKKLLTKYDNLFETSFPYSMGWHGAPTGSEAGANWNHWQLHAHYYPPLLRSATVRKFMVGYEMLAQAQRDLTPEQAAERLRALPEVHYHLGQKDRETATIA
UniProt P0CL80: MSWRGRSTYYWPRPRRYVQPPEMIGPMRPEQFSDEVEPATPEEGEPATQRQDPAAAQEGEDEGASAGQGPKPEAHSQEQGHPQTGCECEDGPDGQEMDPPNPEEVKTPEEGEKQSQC
UniProt P04066: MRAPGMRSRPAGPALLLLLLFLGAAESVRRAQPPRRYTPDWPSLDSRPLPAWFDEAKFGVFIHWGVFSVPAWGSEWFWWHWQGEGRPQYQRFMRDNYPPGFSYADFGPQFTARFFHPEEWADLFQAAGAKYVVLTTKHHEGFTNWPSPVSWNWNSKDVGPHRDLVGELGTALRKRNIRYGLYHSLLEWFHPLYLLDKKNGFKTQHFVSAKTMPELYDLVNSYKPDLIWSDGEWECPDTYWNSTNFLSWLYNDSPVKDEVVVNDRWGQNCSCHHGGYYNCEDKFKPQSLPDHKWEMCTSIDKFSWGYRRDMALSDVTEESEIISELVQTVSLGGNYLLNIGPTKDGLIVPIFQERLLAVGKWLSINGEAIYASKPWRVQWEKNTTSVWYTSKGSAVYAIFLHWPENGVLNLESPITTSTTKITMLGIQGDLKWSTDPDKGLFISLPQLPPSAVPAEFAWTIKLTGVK
UniProt Q92947: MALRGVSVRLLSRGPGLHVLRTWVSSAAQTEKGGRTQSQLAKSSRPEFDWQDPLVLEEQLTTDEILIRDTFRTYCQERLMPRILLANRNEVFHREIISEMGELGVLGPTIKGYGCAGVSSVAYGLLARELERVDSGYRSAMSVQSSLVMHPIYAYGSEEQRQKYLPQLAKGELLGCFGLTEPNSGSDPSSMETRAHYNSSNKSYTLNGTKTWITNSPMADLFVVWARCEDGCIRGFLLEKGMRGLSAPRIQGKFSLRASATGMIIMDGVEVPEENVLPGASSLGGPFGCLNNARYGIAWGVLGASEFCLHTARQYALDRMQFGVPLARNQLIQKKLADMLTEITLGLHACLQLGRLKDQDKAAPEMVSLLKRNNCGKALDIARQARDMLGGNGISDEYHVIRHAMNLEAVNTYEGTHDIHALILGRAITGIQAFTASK
UniProt Q8TEQ6: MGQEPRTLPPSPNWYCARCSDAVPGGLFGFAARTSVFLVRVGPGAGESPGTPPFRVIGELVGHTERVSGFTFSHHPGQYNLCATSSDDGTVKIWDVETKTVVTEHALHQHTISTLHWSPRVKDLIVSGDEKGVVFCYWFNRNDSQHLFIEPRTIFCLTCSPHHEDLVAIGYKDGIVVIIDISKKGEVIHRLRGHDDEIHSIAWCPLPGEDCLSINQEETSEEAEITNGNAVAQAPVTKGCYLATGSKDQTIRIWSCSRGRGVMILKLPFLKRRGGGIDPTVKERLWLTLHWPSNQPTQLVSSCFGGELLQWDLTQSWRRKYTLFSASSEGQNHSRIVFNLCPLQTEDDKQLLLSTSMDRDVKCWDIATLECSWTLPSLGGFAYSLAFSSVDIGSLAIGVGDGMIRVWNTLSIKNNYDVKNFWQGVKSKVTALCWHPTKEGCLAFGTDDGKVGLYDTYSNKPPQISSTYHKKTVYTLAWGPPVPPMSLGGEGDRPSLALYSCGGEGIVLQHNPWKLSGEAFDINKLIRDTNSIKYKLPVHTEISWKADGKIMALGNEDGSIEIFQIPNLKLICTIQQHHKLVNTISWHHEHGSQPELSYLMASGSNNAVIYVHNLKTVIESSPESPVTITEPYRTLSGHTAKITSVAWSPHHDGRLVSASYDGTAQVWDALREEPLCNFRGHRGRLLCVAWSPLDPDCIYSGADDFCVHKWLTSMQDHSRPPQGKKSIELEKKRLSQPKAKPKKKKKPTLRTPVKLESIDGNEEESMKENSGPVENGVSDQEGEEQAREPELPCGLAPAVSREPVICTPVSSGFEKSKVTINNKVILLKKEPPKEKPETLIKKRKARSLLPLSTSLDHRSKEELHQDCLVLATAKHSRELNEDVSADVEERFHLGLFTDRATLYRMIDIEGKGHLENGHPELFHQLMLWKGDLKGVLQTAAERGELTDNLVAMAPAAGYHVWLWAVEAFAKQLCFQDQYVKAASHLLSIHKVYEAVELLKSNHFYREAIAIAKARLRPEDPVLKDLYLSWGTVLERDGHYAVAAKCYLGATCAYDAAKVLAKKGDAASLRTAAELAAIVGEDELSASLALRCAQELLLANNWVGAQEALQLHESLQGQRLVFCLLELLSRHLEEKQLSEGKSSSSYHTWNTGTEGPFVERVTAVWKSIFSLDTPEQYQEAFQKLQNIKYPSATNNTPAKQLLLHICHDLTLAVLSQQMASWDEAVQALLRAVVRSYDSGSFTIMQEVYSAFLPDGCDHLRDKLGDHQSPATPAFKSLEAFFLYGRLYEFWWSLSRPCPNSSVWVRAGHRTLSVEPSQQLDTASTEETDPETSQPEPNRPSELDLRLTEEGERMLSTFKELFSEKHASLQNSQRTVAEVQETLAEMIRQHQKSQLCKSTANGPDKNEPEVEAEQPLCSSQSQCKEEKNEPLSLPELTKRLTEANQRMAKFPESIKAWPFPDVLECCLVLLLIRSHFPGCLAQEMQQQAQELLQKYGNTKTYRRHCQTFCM
UniProt Q9NWZ8: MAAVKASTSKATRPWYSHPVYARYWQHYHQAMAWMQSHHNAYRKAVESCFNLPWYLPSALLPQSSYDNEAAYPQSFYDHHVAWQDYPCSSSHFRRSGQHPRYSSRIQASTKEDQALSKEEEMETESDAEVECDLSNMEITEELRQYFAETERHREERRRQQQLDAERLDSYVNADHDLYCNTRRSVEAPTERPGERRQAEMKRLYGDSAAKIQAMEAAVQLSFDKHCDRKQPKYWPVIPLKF
UniProt Q8N2G8: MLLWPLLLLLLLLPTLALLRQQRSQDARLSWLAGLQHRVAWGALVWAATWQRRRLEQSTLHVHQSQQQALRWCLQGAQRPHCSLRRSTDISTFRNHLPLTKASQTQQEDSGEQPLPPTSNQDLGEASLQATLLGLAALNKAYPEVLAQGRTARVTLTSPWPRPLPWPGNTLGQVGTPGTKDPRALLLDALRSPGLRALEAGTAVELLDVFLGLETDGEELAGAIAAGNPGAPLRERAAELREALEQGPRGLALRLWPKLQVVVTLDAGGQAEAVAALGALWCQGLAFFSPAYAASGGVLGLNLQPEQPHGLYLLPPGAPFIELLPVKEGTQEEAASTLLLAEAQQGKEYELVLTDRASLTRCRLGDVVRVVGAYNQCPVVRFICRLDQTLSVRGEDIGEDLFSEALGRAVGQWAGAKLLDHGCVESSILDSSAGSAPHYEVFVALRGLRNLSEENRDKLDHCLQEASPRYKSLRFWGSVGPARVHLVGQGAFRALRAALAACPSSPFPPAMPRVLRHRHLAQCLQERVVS
UniProt P48507: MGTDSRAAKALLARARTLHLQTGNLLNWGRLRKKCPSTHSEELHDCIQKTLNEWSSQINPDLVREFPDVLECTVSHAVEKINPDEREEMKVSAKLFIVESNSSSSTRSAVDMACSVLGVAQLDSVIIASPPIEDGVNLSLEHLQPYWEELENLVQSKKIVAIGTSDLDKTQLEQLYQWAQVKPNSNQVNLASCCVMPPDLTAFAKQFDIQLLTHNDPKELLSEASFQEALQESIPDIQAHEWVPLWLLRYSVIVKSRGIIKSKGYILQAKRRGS
UniProt P51570: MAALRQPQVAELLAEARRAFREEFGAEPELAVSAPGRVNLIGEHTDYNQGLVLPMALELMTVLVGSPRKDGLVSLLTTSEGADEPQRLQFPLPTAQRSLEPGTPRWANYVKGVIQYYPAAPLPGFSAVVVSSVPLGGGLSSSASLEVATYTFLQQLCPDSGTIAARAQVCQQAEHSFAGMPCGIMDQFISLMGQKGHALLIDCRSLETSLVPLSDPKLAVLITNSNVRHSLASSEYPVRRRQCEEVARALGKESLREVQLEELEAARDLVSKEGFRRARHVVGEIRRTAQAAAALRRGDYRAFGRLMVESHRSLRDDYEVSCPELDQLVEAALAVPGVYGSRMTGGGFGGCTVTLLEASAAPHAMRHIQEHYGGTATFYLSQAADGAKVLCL
UniProt Q8NB37: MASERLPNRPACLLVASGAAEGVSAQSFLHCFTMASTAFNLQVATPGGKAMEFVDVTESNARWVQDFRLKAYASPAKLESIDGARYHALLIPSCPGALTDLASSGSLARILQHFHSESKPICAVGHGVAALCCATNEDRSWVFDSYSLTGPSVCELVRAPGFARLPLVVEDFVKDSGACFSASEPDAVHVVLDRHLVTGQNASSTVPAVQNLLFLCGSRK
UniProt Q8IWJ2: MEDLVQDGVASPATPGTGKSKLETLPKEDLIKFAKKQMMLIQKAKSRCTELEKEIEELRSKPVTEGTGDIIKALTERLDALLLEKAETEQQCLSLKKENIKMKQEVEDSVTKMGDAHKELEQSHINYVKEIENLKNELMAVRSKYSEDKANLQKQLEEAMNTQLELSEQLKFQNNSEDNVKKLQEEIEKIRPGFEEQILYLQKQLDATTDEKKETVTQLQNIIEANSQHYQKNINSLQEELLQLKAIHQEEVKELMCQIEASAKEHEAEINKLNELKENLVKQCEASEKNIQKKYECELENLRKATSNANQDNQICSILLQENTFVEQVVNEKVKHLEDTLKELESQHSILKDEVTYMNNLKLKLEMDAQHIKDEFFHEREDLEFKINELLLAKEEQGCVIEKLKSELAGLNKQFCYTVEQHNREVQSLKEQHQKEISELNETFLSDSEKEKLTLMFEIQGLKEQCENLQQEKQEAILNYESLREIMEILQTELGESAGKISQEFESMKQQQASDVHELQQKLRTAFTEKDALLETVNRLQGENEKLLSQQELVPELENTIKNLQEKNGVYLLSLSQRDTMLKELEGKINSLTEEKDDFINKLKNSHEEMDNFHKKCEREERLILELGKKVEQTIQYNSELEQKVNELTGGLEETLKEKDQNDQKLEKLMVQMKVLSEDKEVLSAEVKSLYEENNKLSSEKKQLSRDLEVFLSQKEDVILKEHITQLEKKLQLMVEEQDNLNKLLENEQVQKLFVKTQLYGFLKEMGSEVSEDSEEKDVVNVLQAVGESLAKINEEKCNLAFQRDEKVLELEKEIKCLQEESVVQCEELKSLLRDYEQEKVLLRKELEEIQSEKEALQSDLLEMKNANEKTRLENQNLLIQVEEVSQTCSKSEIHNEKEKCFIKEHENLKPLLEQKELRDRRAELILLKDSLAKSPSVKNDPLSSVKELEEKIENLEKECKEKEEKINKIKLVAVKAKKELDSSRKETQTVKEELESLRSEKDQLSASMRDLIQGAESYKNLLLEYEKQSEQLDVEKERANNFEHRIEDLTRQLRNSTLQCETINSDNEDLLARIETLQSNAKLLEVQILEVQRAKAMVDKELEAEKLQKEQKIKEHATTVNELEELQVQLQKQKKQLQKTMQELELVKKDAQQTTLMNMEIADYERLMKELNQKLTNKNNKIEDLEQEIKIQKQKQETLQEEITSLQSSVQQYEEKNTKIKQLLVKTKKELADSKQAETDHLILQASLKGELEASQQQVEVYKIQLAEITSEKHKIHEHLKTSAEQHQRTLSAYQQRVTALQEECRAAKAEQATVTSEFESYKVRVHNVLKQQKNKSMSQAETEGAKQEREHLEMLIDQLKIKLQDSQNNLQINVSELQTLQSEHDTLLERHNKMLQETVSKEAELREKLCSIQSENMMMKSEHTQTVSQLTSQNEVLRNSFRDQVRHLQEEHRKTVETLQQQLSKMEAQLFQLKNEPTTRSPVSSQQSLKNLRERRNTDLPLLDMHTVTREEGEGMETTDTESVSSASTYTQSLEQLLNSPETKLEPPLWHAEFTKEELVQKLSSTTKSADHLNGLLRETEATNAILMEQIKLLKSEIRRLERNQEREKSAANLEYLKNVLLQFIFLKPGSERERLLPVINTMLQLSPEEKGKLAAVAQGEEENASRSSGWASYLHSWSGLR

Columns and labels:
Experiment in all cases: log2 fold change, soluble protein after heating vs DMSO (PISA); higher = thermal stabilisation; K562 cells, 10 uM, 30 min; active = over 0.2 and 3.5 SD of the protein, either way, in both replicates (recomputed)
[1] = compound: CC[C@@H]1C(=O)N(C)c2cnc(Nc3ccc(C(=O)NC4CCN(C)CC4)cc3OC)nc2N1C1CCCC1
Procedure, shortened: (§1)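 K562 cells at 2×10^6 cells/mL were treated for 30 min with 10 μM compound, and aliquots were heated for 3 min over 48°C-58°C before pooling. Extraction used PBS with 0.5% NP-40 at 4°C, and soluble protein was the supernatant after 21,000xg for 90 min, measured by TMTpro 16plex LC-MS/MS with channel sums equalised. Thermal stability values, relative to control samples and from duplicates, are log2 fold changes.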

volasertib = compound: CC[C@@H]1C(=O)N(C)c2cnc(Nc3ccc(C(=O)N[C@H]4CC[C@H](N5CCN(CC6CC6)CC5)CC4)cc3OC)nc2N1C(C)C [volasertib]
Procedure, shortened: as §1

[2] = compound: CC[C@H](C)N1C=C(C2=C(C=C(C=C21)C3=CN=C(C=C3)N4CCNCC4)C(=O)NCC5=C(C=C(NC5=O)C)C)C
Procedure, shortened: as §1

epoxomicin = compound: CC[C@H](C)[C@@H](C(=O)N[C@@H]([C@@H](C)O)C(=O)N[C@@H](CC(C)C)C(=O)[C@]1(CO1)C)NC(=O)[C@H]([C@@H](C)CC)N(C)C(=O)C [epoxomicin]
Procedure, shortened: as §1

[3] = compound: CCn1c(C(=O)N(C2CC2)C2CC2)cc2c3c(ncn3C)c(Nc3cc(C)n(C)n3)nc21
Procedure, shortened: as §1

[4] = compound: CCn1cc(-c2ccnc3[nH]c(-c4cccc(CN(C)C)c4)cc23)c(-c2ccc(NC(=O)N(C)C)cc2)n1
Procedure, shortened: as §1

[5] = compound: CN(C)CC(=O)Nc1ccc2[nH]c(=O)c3ccccc3c2c1
Procedure, shortened: as §1

rosiglitazone = compound: CN(CCOC1=CC=C(C=C1)C[C@H]2C(=O)NC(=O)S2)C3=CC=CC=N3 (racemic) [rosiglitazone]
Procedure, shortened: as §1

[6] = compound: CN1C2=C(C3=C1C(=O)N(N=C3)CC4=CC(=CC=C4)N)SC(=C2)S(=O)C
Procedure, shortened: as §1

[7] = compound: CN1CCC(CNc2ccc3ncc(-c4cccc(OC(F)(F)F)c4)n3n2)CC1
Procedure, shortened: as §1

Target | log2 fold change [1] | log2 fold change (volasertib) | log2 fold change [2] | log2 fold change (epoxomicin) | log2 fold change [3] | log2 fold change [4] | log2 fold change [5] | log2 fold change (rosiglitazone) | log2 fold change [6] | log2 fold change [7]
G3BP1 (UniProt Q13283) | inactive: 0.172 | inactive: 0.151 | inactive: 0.088 | inactive: -0.135 | inactive: -0.002 | inactive: 0.103 | inactive: -0.07 | inactive: -0.105 | inactive: 0.147 | inactive: 0.053
GGPS1 (UniProt O95749) | inactive: 0.063 | inactive: 0.104 | inactive: -0.055 | inactive: 0.007 | inactive: 0.019 | inactive: 0.028 | inactive: -0.026 | inactive: 0.031 | inactive: -0.031 | inactive: -0.034
FXN (UniProt Q16595) | inactive: -0.009 | inactive: -0.045 | inactive: 0.029 | inactive: 0.02 | inactive: 0.046 | inactive: -0.036 | inactive: 0.085 | inactive: 0.002 | inactive: -0.036 | inactive: 0.12
GALT (UniProt P07902) | inactive: 0.073 | inactive: 0.013 | inactive: -0.201 | inactive: 0.014 | inactive: -0.022 | inactive: -0.007 | inactive: 0.029 | inactive: -0.008 | inactive: 0.064 | inactive: -0.002
GATAD2A isoform 3 (UniProt Q86YP4) | inactive: -0.071 | inactive: -0.144 | inactive: 0.059 | inactive: 0.094 | inactive: 0.011 | inactive: 0.014 | inactive: 0.104 | inactive: 0.017 | inactive: 0.081 | inactive: -0.037
FTSJ1 (UniProt Q9UET6) | inactive: -0.016 | inactive: 0.012 | inactive: 0.023 | inactive: -0.007 | inactive: -0.067 | inactive: -0.004 | inactive: -0.012 | inactive: 0.047 | inactive: -0.077 | inactive: -0.082
GAR1 (UniProt Q9NY12) | inactive: 0.278 | inactive: 0.217 | inactive: -0.026 | inactive: -0.191 | inactive: -0.009 | inactive: 0.221 | inactive: -0.086 | inactive: -0.094 | inactive: 0.215 | inactive: 0.242
GAGE12F (UniProt P0CL80) | inactive: 0.037 | inactive: 0.069 | inactive: -0.033 | inactive: 0.034 | – | inactive: -0.058 | inactive: -0.095 | – | inactive: -0.049 | inactive: -0.234
GATC (UniProt O43716) | inactive: 0.205 | inactive: -0.131 | inactive: 0.05 | inactive: 0.106 | – | inactive: 0 | inactive: 0.028 | inactive: -0.045 | inactive: -0.067 | inactive: 0.238
GEMIN6 (UniProt Q8WXD5) | inactive: 0.109 | inactive: 0.148 | inactive: -0.052 | inactive: 0.093 | – | inactive: -0.019 | inactive: -0.039 | – | inactive: -0.087 | inactive: -0.048
FUCA1 (UniProt P04066) | active: -1.33 | active: -1.73 | inactive: -0.061 | inactive: -0.03 | – | inactive: -0.006 | inactive: -0.025 | – | inactive: -0.017 | inactive: -0.141
GCDH (UniProt Q92947) | inactive: -0.029 | inactive: 0.039 | inactive: -0.003 | inactive: 0.024 | – | inactive: -0.051 | inactive: 0.008 | – | inactive: -0.048 | inactive: 0.072
FUBP3 (UniProt Q96I24) | inactive: 0.061 | active: -0.251 | inactive: 0.045 | inactive: 0.021 | – | inactive: 0.064 | inactive: -0.028 | – | inactive: 0.02 | inactive: 0.059
GDI1 (UniProt P31150) | inactive: 0.018 | inactive: 0.113 | inactive: 0.025 | inactive: 0.022 | – | inactive: -0.068 | inactive: -0.015 | – | inactive: -0.082 | inactive: 0.008
GCAT isoform 2 (UniProt O75600) | inactive: 0.005 | inactive: 0.068 | inactive: -0.027 | inactive: -0.002 | inactive: -0.11 | inactive: -0.063 | inactive: -0.034 | inactive: 0.006 | inactive: 0.023 | inactive: -0.118
FOXK1 (UniProt P85037) | inactive: 0.429 | inactive: -0.017 | inactive: 0.035 | inactive: 0.027 | – | inactive: 0.041 | inactive: -0.001 | – | inactive: -0.289 | inactive: 0.456
GEMIN5 (UniProt Q8TEQ6) | inactive: -0.122 | active: -0.438 | inactive: 0.034 | inactive: -0.014 | – | inactive: 0.042 | inactive: 0.015 | – | inactive: 0.019 | inactive: -0.094
GEMIN8 (UniProt Q9NWZ8) | inactive: 0.204 | inactive: -0.049 | inactive: -0.056 | inactive: -0.16 | inactive: 0.129 | – | inactive: -0.06 | – | – | –

Some entries already given with just log2 fold change [5]:
Target	log2 fold change [5]
G3BP1 (UniProt Q13283)	inactive: -0.07
FXN (UniProt Q16595)	inactive: 0.085
FTSJ1 (UniProt Q9UET6)	inactive: -0.012

Next entries follow:

Target | log2 fold change [1] | log2 fold change (volasertib) | log2 fold change [2] | log2 fold change (epoxomicin) | log2 fold change [3] | log2 fold change [4] | log2 fold change [5] | log2 fold change (rosiglitazone) | log2 fold change [6] | log2 fold change [7]
GBF1 (UniProt Q92538) | inactive: -0.086 | active: -0.474 | inactive: 0.059 | inactive: -0.007 | – | inactive: -0.013 | inactive: 0.069 | – | inactive: 0.081 | inactive: -0.212
GHDC (UniProt Q8N2G8) | inactive: -0.075 | inactive: -0.053 | inactive: -0.063 | inactive: -0.021 | – | inactive: -0.024 | inactive: 0.009 | – | inactive: -0.053 | inactive: -0.041
FYB1 isoform 3 (UniProt O15117) | inactive: -0.018 | inactive: -0.201 | inactive: 0.263 | inactive: 0.052 | – | inactive: -0.008 | inactive: 0.019 | – | inactive: -0.068 | inactive: -0.246
GAK (UniProt O14976) | inactive: 0.673 | inactive: 1.35 | inactive: -0.401 | inactive: -0.046 | – | inactive: 0.11 | inactive: 0.382 | – | inactive: -0.038 | inactive: 0.95
GCLM (UniProt P48507) | inactive: -0.183 | active: -0.41 | inactive: 0.058 | inactive: 0.03 | – | inactive: -0.046 | inactive: 0.042 | – | inactive: 0.03 | inactive: -0.112
GABARAPL1 isoform 2 (UniProt Q9H0R8) | active: -0.303 | inactive: -0.186 | inactive: 0.035 | inactive: -0.029 | – | inactive: 0.007 | inactive: 0.034 | – | inactive: -0.135 | inactive: -0.187
GABPA (UniProt Q06546) | inactive: -0.017 | active: -0.304 | inactive: 0.079 | inactive: 0.007 | – | inactive: -0.07 | inactive: 0.037 | – | inactive: -0.026 | inactive: -0.174
FUCA2 (UniProt Q9BTY2) | active: -1.11 | active: -1.04 | inactive: 0.001 | inactive: -0.024 | – | inactive: 0.003 | inactive: -0.019 | – | inactive: -0.033 | inactive: -0.029
FOXJ3 (UniProt Q9UPW0) | inactive: 0.298 | inactive: -0.343 | inactive: 0.014 | inactive: -0.01 | inactive: 0.001 | – | inactive: -0.097 | inactive: 0.12 | inactive: 0.034 | –
GALK1 isoform 2 (UniProt P51570) | inactive: -0.03 | inactive: -0.009 | inactive: 0.053 | inactive: 0.131 | – | inactive: -0.064 | inactive: 0.106 | – | inactive: -0.049 | inactive: -0.03
GABARAPL2 (UniProt P60520) | active: -0.29 | inactive: -0.182 | inactive: 0.041 | inactive: 0.027 | – | inactive: -0.049 | inactive: -0.017 | – | inactive: -0.07 | inactive: -0.099
GEMIN2 (UniProt O14893) | inactive: -0.203 | inactive: -0.061 | inactive: -0.057 | inactive: 0.011 | – | inactive: 0.013 | inactive: 0.019 | – | inactive: 0.101 | inactive: 0.031
GATD1 (UniProt Q8NB37) | inactive: -0.023 | inactive: -0.009 | inactive: -0.032 | inactive: 0.078 | – | inactive: -0.034 | inactive: -0.02 | – | inactive: 0.011 | inactive: -0.049
GCC2 (UniProt Q8IWJ2) | inactive: 0.094 | inactive: -0.116 | inactive: 0.053 | inactive: -0.005 | – | inactive: 0.013 | inactive: 0.026 | – | inactive: 0.196 | inactive: 0.031
GID4 (UniProt Q8IVV7) | inactive: 0.082 | inactive: 0.037 | inactive: 0.044 | inactive: -0.019 | – | inactive: 0.116 | inactive: -0.21 | – | inactive: -0.093 | inactive: -0.006
GGA1 isoform 6 (UniProt Q9UJY5) | inactive: 0.009 | inactive: -0.09 | inactive: 0.056 | inactive: -0.005 | inactive: -0.004 | inactive: -0.04 | inactive: 0 | inactive: 0.003 | inactive: -0.113 | inactive: -0.001
FNTB (UniProt P49356) | active: 0.948 | active: 0.707 | inactive: 0.01 | inactive: 0.044 | – | inactive: -0.212 | inactive: 0.02 | – | inactive: -0.055 | inactive: -0.088

Shown as comma-separated lines: part of the list above.
Target,log2 fold change [1],log2 fold change (volasertib),log2 fold change [2],log2 fold change (epoxomicin),log2 fold change [3],log2 fold change [4],log2 fold change [5],log2 fold change (rosiglitazone),log2 fold change [6],log2 fold change [7]
GGA1 isoform 6 (UniProt Q9UJY5),inactive: 0.009,inactive: -0.09,inactive: 0.056,inactive: -0.005,inactive: -0.004,inactive: -0.04,inactive: 0,inactive: 0.003,inactive: -0.113,inactive: -0.001
FNTB (UniProt P49356),active: 0.948,active: 0.707,inactive: 0.01,inactive: 0.044,–,inactive: -0.212,inactive: 0.02,–,inactive: -0.055,inactive: -0.088
